The values that follow come from PubChem BioAssay AID493014 (National Center for Advancing Translational Sciences (NCATS), 2011).

SMILES strings stand for the structures. This is one part of the list. Shown are side measurements of this screen, not its main read-out; they come without a call. The list favours compounds with an active or inconclusive main result. Potencies come from curve fits of mixed quality, noted in brackets.

This assay can be described thus: qHTS Assay to Find Inhibitors of Chronic Active B-Cell Receptor Signaling. The following applies: ABC-DLBCL IkBa-CBG/CBR reporter, luminescence ratio (green luciferase fused to IkBa over red control in TMD8 lymphoma cells), 4 h. A digest of the protocol: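 Concentration-response series (up to 46 uM) were applied to TMD8 dual-reporter cells for 4 h at 37C with doxycycline. Green/red ratio, after filter-overlap correction, defined %Activity; red signal alone was normalised to basal cells and zero luminescence.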
On the technique in general: Quantitative high-throughput screening tests each substance at several concentrations.

[1] abbreviates: measured here: CBR red luminescence, cell number.
The mark [2] stands for this setting: measured here: IkBa-CBG green luminescence.

Turning to `c1ccc(C2Oc3ccccc3C3CC(c4cccs4)=NN32)cc1` (stereo not drawn), the AC50 under setting [1] is 29.1 µM [falling, single point].

`Cc1ccc(S(=O)(=O)CCSc2cccc(C(=O)Nc3ccccc3C(=O)O)c2)cc1`: under setting [1], the AC50 was 2.06 µM [falling, full curve, poor fit]. With `COc1ccc(S(=O)(=O)Nc2ccc3oc(C)c(C(C)=O)c3c2)cc1`, under setting [1], the AC50 was 2.59 µM [falling, single point]. In the case of `Cc1cc(Br)c2c(c1)/C(=C/C(=O)c1cccs1)C(=O)N2`, the AC50 under setting [1] is 35.5 µM [falling, single point] and the AC50 under setting [2] is 35.5 µM [rising, partial curve, poor fit].

`CN(C)CC/C=C1\c2cc(F)ccc2CSc2ccccc21`: the AC50 under setting [1] was 20.6 µM [falling, partial curve]. Same read-out and setting: with `CCCCCCCN(C(=O)CCl)c1cccc(C)c1` the figure was 23.1 µM [falling, single point]. On to `Cc1cccc(C(=O)Nc2ccc(NC(=O)c3ccccc3)cc2)c1`, for which the AC50 under setting [1] was 25.1 µM [falling, single point]. Regarding `O=C(COC(=O)c1n[nH]c2ccccc12)Nc1ccccc1F`, the AC50 under setting [1] was 16.4 µM [falling, partial curve]. Still for that read-out and setting: then `O=C(CN1CCOCC1)NNc1nc(-c2ccccc2)c2cc(Br)ccc2n1`, with 2.24 µM [falling, full curve]; and `CCOc1ccccc1N1CCN(C(=O)c2ccccc2SCC(=O)N2CCCC2)CC1`, with 14.1 µM [rising, partial curve, poor fit]. On the same count and under the same terms, with `CCOC(=O)CN1CC23C=CC(O2)C(C(=O)NCc2ccc(F)cc2)C3C1=O` (stereo not drawn) the figure was 29.1 µM [rising, single point]; with `O=C(O)C1C2C=CC(CC2)C1C(=O)O` (stereo not drawn), 3.26 µM [rising, single point]; with `COc1cc(C2CC(=O)Oc3c(C(CCN4CCN(c5ccccc5)CC4)c4ccc(N(C)C)cc4)c(OC)cc(OC)c32)cc(OC)c1OC` (stereo not drawn), 0.501 µM [rising, partial curve, poor fit]. Consider `Cc1ccc(NC(=O)C(=O)C2C(=O)Nc3ccccc32)cc1` (stereo not drawn), for which the AC50 under setting [1] is 14.1 µM [falling, partial curve, poor fit]. Consider `CCCc1cc(=O)n2[nH]c(CCc3ccccc3)nc2n1`, for which the AC50 under setting [1] is 5.62 µM [falling, partial curve].

On to `CCCCSc1nnc(-c2cc(Br)ccc2N)c(=O)[nH]1`, for which the AC50 under setting [1] is 1.3 µM [rising, full curve, poor fit].

`COC(=O)c1cc2c(ccn2-c2ccc(F)cc2)n1CC(=O)N1CCN(C(=O)c2ccco2)CC1`: the concentration at half-maximal activity (AC50) under setting [1] was 29.1 µM [rising, single point]. Regarding `S=C(Nc1ccc(Nc2ccccc2)cc1)Nc1ccccn1`, the AC50 by setting is: under setting [1], 14.1 µM [falling, partial curve]; under setting [2], 35.5 µM [rising, partial curve, poor fit]. In the case of `O=S(=O)(Cc1noc(-c2ccccc2Cl)n1)c1ccccn1`, the AC50 under setting [1] is 20 µM [rising, partial curve]. For `O=C(O)CSCc1cn2cc(Cl)ccc2n1`, the AC50 under setting [1] is 29.1 µM [falling, single point]. For `N#C/C(=C\c1cn(Cc2ccccc2)c2ccccc12)C(=O)NCc1ccco1`, the AC50 under setting [1] is 7.31 µM [rising, partial curve]. Same read-out and setting: with `CCc1noc(C)c1C(=O)Nc1nc2ccc(S(C)(=O)=O)cc2s1` the figure was 10.3 µM [falling, partial curve]. Still for that read-out and setting: with `CC(=O)Nc1ccc(N2C(=O)CSC2c2cccc([N+](=O)[O-])c2)cc1` (stereo not drawn) the figure was 35.5 µM [rising, partial curve, poor fit]; with `Cc1ccccc1N1C(=O)c2sc3nc4c(c(=O)n3c2C1=O)CCC4`, 8.91 µM [falling, partial curve]. With `COc1ccccc1NC(=O)Nc1nc(CC(=O)NCc2ccccn2)cs1`, under setting [1], the AC50 is 0.651 µM [rising, partial curve, poor fit]. The same measure, in the same setting: with `Clc1ccc(SCc2cc(-c3ccccc3)on2)cc1` the figure was 0.231 µM [rising, full curve, poor fit]; with `CC(C)(C)c1nnc(NS(=O)(=O)c2ccc([N+](=O)[O-])cc2)s1`, 25.1 µM [rising, partial curve, poor fit]; with `O=C1C2C(c3cccc(/C=C/c4ccccc4)c3)CC=CC2C(c2ccc3ccccc3c2)N1Cc1ccccc1` (stereo not drawn), 17.8 µM [rising, single point]. The same measure, in the same setting: with `O=C(NCCO)c1nc2ccccc2s1` the figure was 5.17 µM [falling, partial curve]; with `CC(C)Cn1c(N)c(C(=O)COC(=O)c2cc(C3CC3)nc3ccccc23)c(=O)n(C)c1=O`, 29.1 µM [falling, single point]; with `CCOC(=O)c1c(NC(C)=O)sc(/C(C)=N/Nc2ccc(C(=O)O)cc2)c1C`, 0.251 µM [falling, full curve]. With `CCOC(=O)c1c(NC(=O)c2cccnc2Cl)sc(C(=O)N(C)C)c1C`, the concentration at half-maximal activity (AC50) under setting [2] was 20.6 µM [falling, single point]. In the case of `NC(=O)c1cc2ccccc2o/c1=N/NC(=O)c1cccs1`, under setting [1], the AC50 was 35.5 µM [falling, single point]. For `Cc1[nH]nc2cn[nH]c12`, under setting [1], the AC50 was 7.08 µM [falling, full curve, poor fit]. Still for that read-out and setting: then `Cn1cccc1CC(=O)NNC(=S)Nc1ccc(Cl)cc1Cl`, with 9.2 µM [rising, partial curve]. With `O=C1C(=O)N(CCN2CCOCC2)C(c2ccccn2)/C1=C(/O)c1ccc(Cl)cc1` (stereo not drawn), the AC50 under setting [1] is 0.00461 µM [falling, full curve, poor fit]. In the case of `O=C(Cc1ccccc1)NCc1ccc(F)cc1`, the AC50 under setting [1] was 0.366 µM [rising, partial curve]. Take `CN(C)C(CNC(=O)c1cc(S(=O)(=O)N(C)c2ccccc2)ccc1Cl)c1ccccc1` (stereo not drawn): the AC50 under setting [1] was 22.4 µM [falling, single point] and the concentration at half-maximal activity (AC50) under setting [2] was 15.8 µM [rising, partial curve, poor fit].

With `COc1ccc(CCN(Cc2cc3cccc(C)c3[nH]c2=O)C(=O)N2CCCC2)cc1OC`, the AC50 under setting [1] was 6.51 µM [rising, single point]. Still for that read-out and setting: with `O=c1ccccn1Cc1c(F)cccc1Cl` the figure was 0.00517 µM [rising, full curve, poor fit].

For orientation: AC50 means the concentration giving half of the maximal activity seen.
